Literature values in article PMC8041708, “Characterization of MK6240, a tau PET tracer, in autopsy brain tissue from Alzheimer’s disease cases” (European Journal of Nuclear Medicine and Molecular Imaging, 2020).

System: AD tissue
Settings: ref [8]; cited from earlier work

## CNc1ccc(-c2ccc3cc(OCC(O)CF)ccc3n2)cc1 (centres unmarked) [THK5117]
  Bmax1: 250 fmol/mg
  Bmax2: 1416 fmol/mg
